The target in the experiment is cofilin (mouse (endogenous in retina)). In words: co-IP; wild type murine retinal lysates; magnetic beads coated (+) or uncoated (-) with cofilin antibody; RPGR's retinal specific isoform detected in the bound fraction with GT335 antibody.

Results are given in words; binding and its absence hold for the method and conditions named. Binding seen in cells or lysates may run through a third protein. A result given as binding can be weak or reduced; the word gives no strength.

B1: retinitis pigmentosa GTPase regulator (RPGR), retinal specific isoform (protein, UniProt Q9R0X5-5 1-1305)
chain: MAESESLVPDTGAVFTFGKTKFAENIPSKFWFKNDIPICLSCGDEHTAIVTGNNKLYMFGSNNWGQLGLGSKAAIIKPTCIKALKPEKVKLAACGRNHTLVSTDTGGVYAAGGNNEGQLGLGDTDDRDTFHQIVFFTPADTIKQLSAGANTSAALTEDGKLFMWGDNSEGQIGLEDKSNVCIPHEVTVGKPISWISCGYYHSAFVTMDGELYTFGEPENGKLGLPNELLMNHRSPQRVLGIPERVIQVACGGGHTVVLTEKVVYAFGLGQFGQLGLGTFLFETSEPKIIERIKDQKICHISCGENHTALMTELGLLYTFGDGRHGKLGLGMENFTNQFFPTLCSNFLRFAVQLIACGGCHMLVFATPRLGTIDEPKFEDVYEPYISTGSFSINDLSPRSSLNRSLSARLRRRERERPPCSASMVGTLPPLEGTSASTSAYFYPSSPPFHLSVNNYPEKSPSESMEPLDSDYFEDKMNKDTETENSSAVDSENFGETNDILNMTHMMTTSSNEKLLDFSPIQKQQNQDTFEKVMESTPCTENEDSYEYEEMSKIKEVTVYKQYLAKGIYMIRPAEILEAFSDEEVGNGLDQVEEPRVFTDGKGLQSKQVGKESDEEIVSEKKTEVMEVADVKKIRESEENSKSDSLFDDLPDKTMNSESEDNKDIAEERRSSEQNMTFDSETELVEEPDSYMECERHSEQDSAEELEQPKLVEYSSEEKDEKDEKDDDEVETENLWYDRNCTEQETENVFRATRFFPKFDLKHDHLSGIPEEQEGPEDSEGNVVVEQVVQAQKENLEFEGDRKEAKAEAPSDVITEKEVSESERESGGEREDRSEGDGDQICEKVSLETEHLQRAQGKQERKKGKDKRARCILDMKEREEDKGWEKGSEGGDKMKRDEGNQEKRKKEMEERDAGDERSEEEEGEEEEPEEGEKEEGGEEEEGTSEDQSREDEGDRQEKEGRREGKGRQEDGREGWKEGEEQEQEEEIEEGEEEEREGEEEGGEEEGEGEGEREEEGEGEEEGEGEEEGEGEEEGEGEEEGEGEEEGEGEEEGEGEEEGEGEEDGEGEEDGEGEEEGEGEEEGEREEDGEGEEDGEGEEEGEGEEEGEGEEEGEGEEEGEGEGEEEGEGEWEGEEEGEGEEEGEGEEEGEGEEEGEGEEEGEGEEEGGEDDEGEELEKKKGDITEEEEEEEEGQEGDEREREEHGSCEDDVEEDKTYDREEGEYKKAIGKVADNESQEDRKQSPKVSKINGSMKYGRHGTYSEKPITNLGKTQPSKMPMESRQLVENGLLGSERFWSDVLPLYLELK
modifications: glutamylated (detected using GT335 antibody); residues not stated
Take B1: the binding entry is given as “binds”.

The record behind these values is article PMC11109262.
